# Assay results from PubChem BioAssay AID588497 (NMMLSC, 2011).
# Hit rate of the full screen: of about 360,000 compounds, about 780 (0.22%) were called active. The shares of active, inactive and inconclusive entries below differ from those in the screen. No stated cut-off is given here; in the data, active means inhibition above about 35% (passing the limit was not always enough); inconclusive means no clear call, values can overlap the other calls.
# System: Botulinum neurotoxin type F light chain protease (Clostridium botulinum)
# Experiment: BoNT/F light chain protease inhibitors, primary screen, biochemical, flow cytometry, MLPCN library (AID 588497); further: plate controls were buffer without enzyme for full effect and enzyme alone for no effect
# Conditions: Multiplex microsphere protease cleavage assay, at 10 µM, stronger effect = higher value
row,Compound,inhibition
1,CC(=O)N1CCN(CC(O)COc2ccc(Br)cc2)CC1 (stereo unspecified),inconclusive: 26.9%
2,Cc1ccccc1/C=C/C12NC(=O)CN1c1ccccc1C2(C)C (stereo unspecified),inconclusive: 40.3%
3,O=C(O)/C=C\C(=O)Nc1ccc(F)c(F)c1F,inconclusive: -70.2%
4,COc1ccc(Oc2cccc(Cl)c2CNC(=O)CC(C)(C)CC(=O)O)cc1,inconclusive: -29.3%
5,COc1ccc(COC(=O)C2=C(C)NC(=O)NC2c2cccc(OC)c2OC)cc1 (stereo unspecified),inconclusive: -12.9%
6,COc1ccc(NC(=O)C2CCCN(S(C)(=O)=O)C2)c(OC)c1 (stereo unspecified),inconclusive: 13.7%
7,COc1cc(/C=N/Nc2nc(=O)[nH]nc2C)cc([N+](=O)[O-])c1O,inactive: 2.1%
8,N#Cc1cnn(-c2ccc(F)cc2)c1N,inconclusive: -5.6%
9,COc1ccccc1N1CCN(CC(=O)NC(=O)NCc2ccco2)CC1,inactive: -6.6%
10,Cc1c([N+](=O)[O-])cnc(Sc2ccccc2)c1[N+](=O)[O-],inconclusive: 1.3%
11,CCOc1ccccc1/C=C(\C#N)C1=CCCC1,inactive: -0.9%
12,CCOc1ccccc1C(=O)Nc1c[nH]c(=O)[nH]c1=O,inconclusive: -2.9%
13,Cc1ccc(Cn2ccc(NC(=O)c3cc4nc(-c5ccco5)cc(C(F)(F)F)n4n3)n2)cc1,inactive: -3.2%
14,NC(=S)Nc1c(Cl)cccc1Cl,inconclusive: -71.5%
15,Cc1cccc(C)c1NC(=O)C1(C)CCC(=O)N1CCCn1ccnc1 (stereo unspecified),inactive: -7%
16,COc1ccc(Cl)cc1NC(=O)CN(C)C(=O)Cc1n[nH]c(=O)c2ccccc12,inconclusive: 6.6%
17,CC(=O)c1ccc(NC(=O)C2CC2c2ccccc2)cc1 (stereo unspecified),inconclusive: 58.2%
18,CCOc1c(Br)cc(C2CC(=O)Nc3cc(OC)c(OC)cc32)cc1OC (stereo unspecified),inconclusive: -7.4%
19,COc1cccc(CN2C(=O)C(C)N(C(=O)c3ccccc3)c3ccccc32)c1 (stereo unspecified),inconclusive: -14.8%
20,CCOCCCNC(=S)N(CCCN(C)C)Cc1cc2cc3c(cc2[nH]c1=O)OCCO3,inconclusive: -9.2%
21,CN1CCN(C(=O)C2CCCN(S(=O)(=O)c3ccc(F)cc3)C2)CC1 (stereo unspecified),inactive: 3.5%
22,O=C(N/N=C1\C(=O)c2cccc3cccc1c23)c1ccc(O)cc1,inactive: -0.9%
23,COC(=O)N(NC(=O)C(O)(C(C)C)C(C)C)c1ccccc1,inconclusive: 95%
24,Clc1ccc(Nc2c3c(nc4ncnn24)CCC3)cc1,inconclusive: -11.8%
25,C/C(=N/N1CCN(Cc2ccccc2)CC1)c1ccc(Br)cc1,inconclusive: 8.9%
26,CCC(=O)Nc1ccc2c(c1)nc(CCN1CCN(c3ccccc3)CC1)n2C,inconclusive: 28.7%

# Random excerpt: two compounds from above, in no set order.
row,Compound,inhibition
6,COc1ccc(NC(=O)C2CCCN(S(C)(=O)=O)C2)c(OC)c1 (stereo unspecified),inconclusive: 13.7%
13,Cc1ccc(Cn2ccc(NC(=O)c3cc4nc(-c5ccco5)cc(C(F)(F)F)n4n3)n2)cc1,inactive: -3.2%
